# The list shows a part of the results. The list holds hits alone, and they repeat only in part.
# By UniProt entry, the sequences of proteins in these tests, tags left out.
# HIST1H1E, P10412, UniProt P10412, whole entry: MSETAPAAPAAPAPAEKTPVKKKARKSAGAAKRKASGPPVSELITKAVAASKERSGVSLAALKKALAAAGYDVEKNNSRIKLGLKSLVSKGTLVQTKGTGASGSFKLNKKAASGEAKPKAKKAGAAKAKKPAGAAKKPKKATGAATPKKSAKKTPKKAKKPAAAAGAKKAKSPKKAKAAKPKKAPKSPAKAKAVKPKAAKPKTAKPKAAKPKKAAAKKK
# IK, Q13123, UniProt Q13123, whole entry: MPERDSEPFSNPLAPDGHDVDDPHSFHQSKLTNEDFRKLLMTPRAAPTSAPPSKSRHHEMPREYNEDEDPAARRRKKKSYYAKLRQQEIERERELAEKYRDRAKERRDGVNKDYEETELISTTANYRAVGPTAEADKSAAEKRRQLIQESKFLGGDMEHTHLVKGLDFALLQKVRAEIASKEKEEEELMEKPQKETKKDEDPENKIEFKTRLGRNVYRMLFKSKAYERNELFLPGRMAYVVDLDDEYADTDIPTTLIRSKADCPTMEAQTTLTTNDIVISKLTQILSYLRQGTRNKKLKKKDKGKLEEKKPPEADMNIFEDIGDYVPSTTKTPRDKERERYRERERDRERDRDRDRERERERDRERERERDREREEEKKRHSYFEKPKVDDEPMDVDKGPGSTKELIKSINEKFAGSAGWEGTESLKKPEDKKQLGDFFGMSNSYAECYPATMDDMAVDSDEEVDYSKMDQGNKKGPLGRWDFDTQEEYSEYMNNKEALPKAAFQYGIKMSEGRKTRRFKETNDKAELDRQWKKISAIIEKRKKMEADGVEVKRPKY
# EIF1, P41567, UniProt P41567, whole entry: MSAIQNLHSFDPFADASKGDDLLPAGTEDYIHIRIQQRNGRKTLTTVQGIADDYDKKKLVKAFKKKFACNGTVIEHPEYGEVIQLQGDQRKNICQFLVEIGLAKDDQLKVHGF
# HSPB1, P04792, UniProt P04792, whole entry: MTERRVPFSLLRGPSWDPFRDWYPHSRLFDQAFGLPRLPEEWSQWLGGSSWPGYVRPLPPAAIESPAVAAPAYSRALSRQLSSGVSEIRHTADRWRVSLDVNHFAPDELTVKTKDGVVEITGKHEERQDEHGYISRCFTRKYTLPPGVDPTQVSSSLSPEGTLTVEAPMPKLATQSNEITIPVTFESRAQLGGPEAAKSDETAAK
# DDB1, Q16531, UniProt Q16531, whole entry: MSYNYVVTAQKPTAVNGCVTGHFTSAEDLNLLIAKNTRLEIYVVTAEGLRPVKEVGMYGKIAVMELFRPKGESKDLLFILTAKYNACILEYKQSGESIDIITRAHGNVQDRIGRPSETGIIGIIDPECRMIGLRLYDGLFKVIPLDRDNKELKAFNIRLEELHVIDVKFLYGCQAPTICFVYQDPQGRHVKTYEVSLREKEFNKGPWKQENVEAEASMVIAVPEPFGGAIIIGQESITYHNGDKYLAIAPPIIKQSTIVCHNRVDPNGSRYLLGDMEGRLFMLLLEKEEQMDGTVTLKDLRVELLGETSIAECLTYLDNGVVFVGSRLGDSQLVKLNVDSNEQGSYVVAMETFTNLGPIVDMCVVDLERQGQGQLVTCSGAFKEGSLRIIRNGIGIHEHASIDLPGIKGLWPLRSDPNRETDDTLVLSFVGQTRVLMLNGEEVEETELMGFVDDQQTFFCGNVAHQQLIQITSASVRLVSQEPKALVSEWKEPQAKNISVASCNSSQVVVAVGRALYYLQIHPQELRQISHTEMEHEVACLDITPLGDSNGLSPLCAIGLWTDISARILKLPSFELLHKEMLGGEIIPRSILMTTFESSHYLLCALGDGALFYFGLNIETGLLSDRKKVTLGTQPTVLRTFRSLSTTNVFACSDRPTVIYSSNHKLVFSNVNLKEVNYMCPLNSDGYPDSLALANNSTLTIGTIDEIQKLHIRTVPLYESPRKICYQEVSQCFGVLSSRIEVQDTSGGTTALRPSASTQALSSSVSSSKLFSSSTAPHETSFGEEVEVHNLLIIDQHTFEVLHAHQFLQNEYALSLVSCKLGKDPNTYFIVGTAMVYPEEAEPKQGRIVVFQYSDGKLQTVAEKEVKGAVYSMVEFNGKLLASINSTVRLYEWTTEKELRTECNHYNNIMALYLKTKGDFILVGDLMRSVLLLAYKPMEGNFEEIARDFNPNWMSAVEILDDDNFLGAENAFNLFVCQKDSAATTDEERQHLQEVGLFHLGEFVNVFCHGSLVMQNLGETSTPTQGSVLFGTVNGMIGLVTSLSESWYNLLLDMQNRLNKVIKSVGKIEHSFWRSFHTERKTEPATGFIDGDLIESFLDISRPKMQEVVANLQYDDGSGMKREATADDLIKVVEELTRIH
# SNRPA, P09012, UniProt P09012, whole entry: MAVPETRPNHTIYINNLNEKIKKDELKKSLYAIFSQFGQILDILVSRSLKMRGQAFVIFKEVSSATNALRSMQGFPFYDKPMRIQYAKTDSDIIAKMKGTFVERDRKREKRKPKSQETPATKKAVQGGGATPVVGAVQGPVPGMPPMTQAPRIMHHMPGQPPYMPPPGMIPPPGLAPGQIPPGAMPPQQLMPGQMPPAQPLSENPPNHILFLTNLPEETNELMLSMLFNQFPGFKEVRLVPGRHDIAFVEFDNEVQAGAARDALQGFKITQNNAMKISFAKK
# USP9X, Q93008, UniProt Q93008, whole entry: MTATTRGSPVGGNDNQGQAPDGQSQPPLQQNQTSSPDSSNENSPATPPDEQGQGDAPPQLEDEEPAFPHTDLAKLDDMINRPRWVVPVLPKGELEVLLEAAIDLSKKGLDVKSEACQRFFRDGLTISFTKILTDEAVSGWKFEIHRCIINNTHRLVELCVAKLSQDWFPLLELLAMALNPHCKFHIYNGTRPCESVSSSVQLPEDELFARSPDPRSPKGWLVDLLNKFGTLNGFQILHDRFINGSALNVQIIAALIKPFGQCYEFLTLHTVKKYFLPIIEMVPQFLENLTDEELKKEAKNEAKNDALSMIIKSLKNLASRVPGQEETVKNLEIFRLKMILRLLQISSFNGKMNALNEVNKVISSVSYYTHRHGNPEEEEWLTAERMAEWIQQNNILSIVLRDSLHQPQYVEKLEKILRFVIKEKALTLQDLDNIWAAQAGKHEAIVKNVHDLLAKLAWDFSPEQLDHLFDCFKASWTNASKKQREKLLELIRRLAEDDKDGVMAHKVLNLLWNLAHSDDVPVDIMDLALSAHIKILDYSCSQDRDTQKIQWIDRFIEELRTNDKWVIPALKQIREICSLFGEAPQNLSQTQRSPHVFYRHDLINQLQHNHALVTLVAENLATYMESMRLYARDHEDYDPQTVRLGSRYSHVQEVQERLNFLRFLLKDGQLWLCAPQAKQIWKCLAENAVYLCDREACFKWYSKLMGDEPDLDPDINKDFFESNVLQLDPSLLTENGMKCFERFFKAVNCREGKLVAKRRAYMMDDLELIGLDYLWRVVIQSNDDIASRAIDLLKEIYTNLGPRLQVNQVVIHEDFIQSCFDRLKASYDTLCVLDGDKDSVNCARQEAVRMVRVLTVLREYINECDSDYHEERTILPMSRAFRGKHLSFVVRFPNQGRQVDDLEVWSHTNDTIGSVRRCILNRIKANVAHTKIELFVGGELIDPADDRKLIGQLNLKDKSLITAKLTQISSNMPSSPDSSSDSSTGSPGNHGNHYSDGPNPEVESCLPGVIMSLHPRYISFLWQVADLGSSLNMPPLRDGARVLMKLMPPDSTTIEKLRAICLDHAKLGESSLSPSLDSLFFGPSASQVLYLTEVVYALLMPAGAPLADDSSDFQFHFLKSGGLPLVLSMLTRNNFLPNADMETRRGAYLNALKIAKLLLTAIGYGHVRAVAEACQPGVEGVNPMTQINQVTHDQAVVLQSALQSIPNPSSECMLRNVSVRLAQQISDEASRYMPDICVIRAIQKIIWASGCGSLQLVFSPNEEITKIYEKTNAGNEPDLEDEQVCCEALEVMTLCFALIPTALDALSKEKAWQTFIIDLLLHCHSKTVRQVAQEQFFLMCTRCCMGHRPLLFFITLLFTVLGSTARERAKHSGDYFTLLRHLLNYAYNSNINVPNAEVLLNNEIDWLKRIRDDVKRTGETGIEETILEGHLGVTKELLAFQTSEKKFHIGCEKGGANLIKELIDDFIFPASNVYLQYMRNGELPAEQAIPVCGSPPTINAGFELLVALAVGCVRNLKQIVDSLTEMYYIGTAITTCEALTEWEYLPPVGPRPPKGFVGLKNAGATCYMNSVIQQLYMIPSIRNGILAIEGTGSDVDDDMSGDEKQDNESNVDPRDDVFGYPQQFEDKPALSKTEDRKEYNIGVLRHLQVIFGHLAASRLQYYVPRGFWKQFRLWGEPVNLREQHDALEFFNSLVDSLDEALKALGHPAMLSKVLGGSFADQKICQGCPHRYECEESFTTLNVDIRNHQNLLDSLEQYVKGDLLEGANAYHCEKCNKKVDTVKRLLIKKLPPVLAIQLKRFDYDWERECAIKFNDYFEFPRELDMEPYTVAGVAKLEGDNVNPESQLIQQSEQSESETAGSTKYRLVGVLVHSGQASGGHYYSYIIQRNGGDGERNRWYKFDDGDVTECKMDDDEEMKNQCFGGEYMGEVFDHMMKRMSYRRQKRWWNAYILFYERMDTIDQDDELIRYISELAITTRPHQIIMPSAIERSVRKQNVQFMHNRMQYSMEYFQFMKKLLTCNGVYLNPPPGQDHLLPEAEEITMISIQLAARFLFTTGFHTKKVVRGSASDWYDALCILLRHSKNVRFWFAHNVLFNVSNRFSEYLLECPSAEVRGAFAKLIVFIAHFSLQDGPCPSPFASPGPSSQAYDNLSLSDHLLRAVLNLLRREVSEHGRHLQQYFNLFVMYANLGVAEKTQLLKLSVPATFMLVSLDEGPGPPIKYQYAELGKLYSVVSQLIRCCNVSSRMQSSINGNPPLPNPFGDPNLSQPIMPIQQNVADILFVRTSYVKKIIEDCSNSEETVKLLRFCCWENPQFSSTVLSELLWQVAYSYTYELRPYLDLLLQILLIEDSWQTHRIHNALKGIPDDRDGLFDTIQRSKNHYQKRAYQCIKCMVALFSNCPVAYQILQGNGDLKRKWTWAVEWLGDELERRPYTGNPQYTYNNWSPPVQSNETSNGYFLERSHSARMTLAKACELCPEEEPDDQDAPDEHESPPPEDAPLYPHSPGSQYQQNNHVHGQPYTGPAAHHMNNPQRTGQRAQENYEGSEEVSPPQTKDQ
# MAD2L1, Q13257, UniProt Q13257, whole entry: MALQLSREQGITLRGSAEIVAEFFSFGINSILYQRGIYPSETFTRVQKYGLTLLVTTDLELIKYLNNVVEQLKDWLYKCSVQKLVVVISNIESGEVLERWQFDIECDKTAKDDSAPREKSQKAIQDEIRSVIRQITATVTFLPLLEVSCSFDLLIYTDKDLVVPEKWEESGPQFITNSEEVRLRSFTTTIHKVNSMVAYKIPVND
# RCC2, Q9P258, UniProt Q9P258, whole entry: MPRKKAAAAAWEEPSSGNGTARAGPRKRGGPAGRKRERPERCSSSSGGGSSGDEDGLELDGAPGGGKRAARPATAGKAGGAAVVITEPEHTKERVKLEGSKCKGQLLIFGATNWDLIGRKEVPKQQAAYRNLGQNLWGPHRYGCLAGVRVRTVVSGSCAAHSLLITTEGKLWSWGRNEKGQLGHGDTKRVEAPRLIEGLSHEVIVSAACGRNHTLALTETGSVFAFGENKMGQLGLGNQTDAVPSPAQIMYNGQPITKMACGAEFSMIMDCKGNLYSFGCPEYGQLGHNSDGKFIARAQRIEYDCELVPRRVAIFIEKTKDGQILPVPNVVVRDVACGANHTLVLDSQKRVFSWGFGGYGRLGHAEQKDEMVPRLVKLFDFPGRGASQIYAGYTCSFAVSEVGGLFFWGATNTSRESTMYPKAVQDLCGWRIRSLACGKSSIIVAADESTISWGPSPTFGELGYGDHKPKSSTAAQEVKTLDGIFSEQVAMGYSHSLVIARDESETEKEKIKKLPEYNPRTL
# RPS6KA3, P51812, UniProt P51812, whole entry: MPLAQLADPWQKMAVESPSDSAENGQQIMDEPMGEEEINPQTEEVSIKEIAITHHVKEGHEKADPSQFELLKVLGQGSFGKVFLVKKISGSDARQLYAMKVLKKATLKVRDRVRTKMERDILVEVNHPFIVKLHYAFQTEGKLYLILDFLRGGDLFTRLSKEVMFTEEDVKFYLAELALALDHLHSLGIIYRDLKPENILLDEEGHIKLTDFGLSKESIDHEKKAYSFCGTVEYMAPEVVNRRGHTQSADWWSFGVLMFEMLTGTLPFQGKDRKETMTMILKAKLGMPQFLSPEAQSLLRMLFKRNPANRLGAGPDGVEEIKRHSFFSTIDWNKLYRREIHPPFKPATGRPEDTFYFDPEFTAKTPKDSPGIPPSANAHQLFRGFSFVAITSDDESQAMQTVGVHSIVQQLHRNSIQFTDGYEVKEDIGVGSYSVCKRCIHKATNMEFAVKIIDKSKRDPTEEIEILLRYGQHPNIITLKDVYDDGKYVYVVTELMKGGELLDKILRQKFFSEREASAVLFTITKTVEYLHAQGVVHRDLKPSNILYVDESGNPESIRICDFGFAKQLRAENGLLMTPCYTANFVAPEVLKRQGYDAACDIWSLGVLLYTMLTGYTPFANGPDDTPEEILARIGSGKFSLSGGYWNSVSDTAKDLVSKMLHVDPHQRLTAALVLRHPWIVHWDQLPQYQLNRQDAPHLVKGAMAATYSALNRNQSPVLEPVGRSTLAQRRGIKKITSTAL
# Key:
# Assay in all cases: PRISMA enrichment of interactor (LFQ) in peptide spot vs all other peptide spots (log2 fold change); higher = stronger / more specific binding of the interactor to the peptide
# [1] = target: DHCR24, Q15392
# Protocol: (§1)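 PRISMA: 15-aa overlapping tiles (offset 8 aa) of 60 microproteins, plus SOS1/GLUT1 control peptides, were spot-synthesized on cellulose membranes in triplicate. Membranes were incubated with benzonase-treated HEK293T lysate, and bound proteins were identified by LC-MS/MS with LFQ. Enrichment is the log2 fold change of each protein in one spot versus all other spots. Only interactors passing the significance cutoff are listed.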
# [2] = target: FLII, Q13045
# Protocol: as §1
# [3] = target: HIST1H1E, P10412
# Protocol: as §1
# [4] = target: IK, Q13123
# Protocol: as §1
# [5] = target: INTS2, Q9H0H0
# Protocol: as §1
# [6] = target: POP1, Q99575
# Protocol: as §1
# [7] = target: RNF213, Q63HN8
# Protocol: as §1
# [8] = target: RRP12, Q5JTH9
# Protocol: as §1
# [9] = target: DDX5, P17844
# Protocol: as §1
# [10] = target: EIF1, P41567
# Protocol: as §1
# [11] = target: HSPB1, P04792
# Protocol: as §1
# [12] = target: MED20, Q9H944
# Protocol: as §1
# [13] = target: MRPL27, Q9P0M9
# Protocol: as §1
# [14] = target: TRIM26, Q12899
# Protocol: as §1
# [15] = target: TRMT112, Q9UI30
# Protocol: as §1
# [16] = target: DDB1, Q16531
# Protocol: as §1
# [17] = target: EEF1B2, P24534
# Protocol: as §1
# [18] = target: GPAT4, Q86UL3
# Protocol: as §1
# [19] = target: PLK1, P53350
# Protocol: as §1
# [20] = target: PYGL, P06737
# Protocol: as §1
# [21] = target: RAVER1, Q8IY67
# Protocol: as §1
# [22] = target: RBM12B, Q8IXT5
# Protocol: as §1
# [23] = target: SMNDC1, O75940
# Protocol: as §1
# [24] = target: SNRPA, P09012
# Protocol: as §1
# [25] = target: SSR1, P43307
# Protocol: as §1
# [26] = target: TOP2B, Q02880
# Protocol: as §1
# [27] = target: UBE2N, P61088
# Protocol: as §1
# [28] = target: USP9X, Q93008
# Protocol: as §1
# [29] = target: ZNF483, Q8TF39
# Protocol: as §1
# [30] = target: DNAJA3, Q96EY1
# Protocol: as §1
# [31] = target: MAD2L1, Q13257
# Protocol: as §1
# [32] = target: PLS3, P13797
# Protocol: as §1
# [33] = target: RCC2, Q9P258
# Protocol: as §1
# [34] = target: RPS6KA3, P51812
# Protocol: as §1
binder,measurement,setting,value
MKWTQHVKTILSRSL [RP11-620J15.3],PRISMA enrichment of interactor (log2),[1],4.85
same,PRISMA enrichment of interactor (log2),[2],5.84
same,PRISMA enrichment of interactor (log2),[3],5.98
same,PRISMA enrichment of interactor (log2),[4],4.43
same,PRISMA enrichment of interactor (log2),[5],4.61
same,PRISMA enrichment of interactor (log2),[6],8.29
same,PRISMA enrichment of interactor (log2),[7],8.89
same,PRISMA enrichment of interactor (log2),[8],6.86
MAILRQNMASLDFFL [RP3-332B22.1],PRISMA enrichment of interactor (log2),[9],4.65
same,PRISMA enrichment of interactor (log2),[10],5.81
same,PRISMA enrichment of interactor (log2),[11],4.77
same,PRISMA enrichment of interactor (log2),[12],4.52
same,PRISMA enrichment of interactor (log2),[13],6.5
same,PRISMA enrichment of interactor (log2),[14],4.92
same,PRISMA enrichment of interactor (log2),[15],6.37
NLEMGLVERGIEKSR [JHDM1D-AS1],PRISMA enrichment of interactor (log2),[16],5.67
same,PRISMA enrichment of interactor (log2),[17],5.15
same,PRISMA enrichment of interactor (log2),[18],5.76
same,PRISMA enrichment of interactor (log2),[19],6.12
same,PRISMA enrichment of interactor (log2),[20],4.68
same,PRISMA enrichment of interactor (log2),[21],5.51
same,PRISMA enrichment of interactor (log2),[22],4.24
same,PRISMA enrichment of interactor (log2),[23],5.09
same,PRISMA enrichment of interactor (log2),[24],6.19
same,PRISMA enrichment of interactor (log2),[25],4.05
same,PRISMA enrichment of interactor (log2),[26],6
same,PRISMA enrichment of interactor (log2),[27],7.09
same,PRISMA enrichment of interactor (log2),[28],7.36
same,PRISMA enrichment of interactor (log2),[29],4.59
AWRYMGGFAKSVSFS [NDUFB3],PRISMA enrichment of interactor (log2),[30],7.3
same,PRISMA enrichment of interactor (log2),[31],4.35
same,PRISMA enrichment of interactor (log2),[32],5
same,PRISMA enrichment of interactor (log2),[33],4.53
same,PRISMA enrichment of interactor (log2),[34],4.14

# Some of the entries so far, bar-delimited:
binder | measurement | setting | value
MAILRQNMASLDFFL [RP3-332B22.1] | PRISMA enrichment of interactor (log2) | [15] | 6.37
NLEMGLVERGIEKSR [JHDM1D-AS1] | PRISMA enrichment of interactor (log2) | [23] | 5.09
